Assay results as given in article PMC10613150.
No constants are given. Whether binding was seen depends on the method and setting. Binding seen in cells or lysates may run through a third protein. Binding can be weak; no strength is given. Tags and fused reporters may be left off the sequences shown.

Target: hepatitis B precore protein with Flag tag (hepatitis B virus)
Assay: co-IP; HEK293T co-transfected with Myc-OTUD5 and a Flag-tagged HBV protein; lysed 48 h after transfection in 50 mM Tris-HCl pH 8.0, 150 mM NaCl, 1% NP-40; lysates incubated overnight with anti-FLAG M2 magnetic beads (Fig. 4B-D) or anti-Myc magnetic beads (Fig. 4E-G)

B1: OTUD5 with Myc tag (enzyme, UniProt Q96G74 1-571)
chain: MTILPKKKPPPPDADPANEPPPPGPMPPAPRRGGGVGVGGGGTGVGGGDRDRDSGVVGARPRASPPPQGPLPGPPGALHRWALAVPPGAVAGPRPQQASPPPCGGPGGPGGGPGDALGAAAAGVGAAGVVVGVGGAVGVGGCCSGPGHSKRRRQAPGVGAVGGGSPEREEVGAGYNSEDEYEAAAARIEAMDPATVEQQEHWFEKALRDKKGFIIKQMKEDGACLFRAVADQVYGDQDMHEVVRKHCMDYLMKNADYFSNYVTEDFTTYINRKRKNNCHGNHIEMQAMAEMYNRPVEVYQYSTGTSAVEPINTFHGIHQNEDEPIRVSYHRNIHYNSVVNPNKATIGVGLGLPSFKPGFAEQSLMKNAIKTSEESWIEQQMLEDKKRATDWEATNEAIEEQVARESYLQWLRDQEKQARQVRGPSQPRKASATCSSATAAASSGLEEWTSRSPRQRSSASSPEHPELHAELGMKPPSPGTVLALAKPPSPCAPGTSSQFSAGADRATSPLVSLYPALECRALIQQMSPSAFGLNDWDDDEILASVLAVSQQEYLDSMKKNKVHRDPPPDKS
binding: binds
